# Earlier results, collected in patent publication US6126917A, “Epidermal growth factor receptor binding compounds for positron emission tomography” (Hadasit Medical Research Services and Development Ltd., priority 1999, dated 2000).
# System: EGFR-TK
# Settings: normal mice, cited from earlier work
compound,measurement,setting,value
COc1cc2ncnc(Nc3cccc(Br)c3)c2cc1OC [PD 153035],uptake specificity,PD 153035 labeled with 11C in the 7-methoxy position,uptake specificity could not be demonstrated
same,effect of enzyme-blocking dose of PD 153035 on tracer uptake,tracer: PD 153035 labeled with 11C in 7-methoxy position,caused an increase in tracer uptake in the tissues studied
